Reference: patent publication US8242239B2, “MHC molecule-binding tumor-associated peptides” (Immatics Biotechnologies GmbH, priority 2004, dated 2012)
Part of at least one peptide drawing is inferred or uncertain, most often the ends. No end group written: not given here.

Experiments:
[1] = tested on: KM22 target cells; assay: 51Cr release CTL assay with peptide-pulsed target cells; type: cell-based, human; details: KM22 positive for HLA allele B*0702, treated with interferon gamma, cells without peptide not recognized
[2] = tested on: T lymphocytes binding to HLA-B*0702/FPSLREAAL tetramers; assay: Production of interferon gamma by peptide-stimulated T lymphocytes (intracellular staining, FACS); type: cell-based, human; details: KM22 or JY cells loaded with peptide, pretreated with 5 or 25 μM INF; Tet+ and Tet- T lymphocytes

## FPSLREAAL [SEQ ID NO. 114, FPSLREAAL]
[1]
  CTL-specific lysis of KM22 target cells loaded with peptide: selectively killed
[1]; listed as SEQ ID NO: 114
  CTL-specific lysis of KM22 target cells loaded with peptide: recognized and lysed
[2]
  Production of interferon gamma by T lymphocytes upon stimulation with peptide-loaded cells: produce interferon gamma
